# From patent US11207283B2 (priority 2016, dated 2021)
# Some entries share one result that the patent states for a list of compounds. At least one compound was matched to its structure with a doubt left.
# Test system: P. falciparum parasite, D6 (Sierra Leone)
# Experiment: Malaria SYBR Green I-based fluorescence (MSF) assay
# Format: cell-based, Plasmodium falciparum
# Settings: D6 strain, 72 hours, range 0.5-10000 ng/mL
compound,measurement,value
N[C@H]1C[C@@H](C(=O)O)CC1=C(F)F [Compound 1],IC50 against P. falciparum,"> 10,000 ng/ml"
